Laboratory results as given in ChEMBL document CHEMBL3085714 (J Med Chem, 2013).
This continues a long series; more values of the same kind are listed elsewhere.

Tests used:
Homo sapiens [1] = organism: Homo sapiens; assay: Selectivity for p38alpha MAP kinase (unknown origin) over ABL1 T315I mutant (unknown origin)
Homo sapiens [2] = organism: Homo sapiens; assay: Selectivity for p38alpha MAP kinase (unknown origin) over ABL1 H396P mutant (unknown origin)
Homo sapiens [3] = organism: Homo sapiens; assay: Selectivity for p38alpha MAP kinase (unknown origin) over CK1-epsilon (unknown origin)
Homo sapiens [4] = organism: Homo sapiens; assay: Selectivity for p38alpha MAP kinase (unknown origin) over ACV-R1B (unknown origin)
Homo sapiens [5] = organism: Homo sapiens; assay: Selectivity for p38alpha MAP kinase (unknown origin) over PBK (unknown origin)
Homo sapiens [6] = organism: Homo sapiens; assay: Selectivity for p38alpha MAP kinase (unknown origin) over HIPK4 (unknown origin)
Homo sapiens [7] = organism: Homo sapiens; assay: Selectivity for p38alpha MAP kinase (unknown origin) over TGFB-R1 (unknown origin)
Homo sapiens [8] = organism: Homo sapiens; assay: Selectivity for p38alpha MAP kinase (unknown origin) over CDK8/CycC (unknown origin)
Homo sapiens [9] = organism: Homo sapiens; assay: Selectivity for p38alpha MAP kinase (unknown origin) over EPHA5 (unknown origin)
Homo sapiens [10] = organism: Homo sapiens; assay: Selectivity for p38alpha MAP kinase (unknown origin) over TAOK2 (unknown origin)
Homo sapiens [11] = organism: Homo sapiens; assay: Selectivity for p38alpha MAP kinase (unknown origin) over MST3 (unknown origin)
Homo sapiens [12] = organism: Homo sapiens; assay: Selectivity for p38alpha MAP kinase (unknown origin) over TSF1 (unknown origin)
Homo sapiens [13] = organism: Homo sapiens; assay: Selectivity for p38alpha MAP kinase (unknown origin) over STK17A (unknown origin)
Homo sapiens [14] = organism: Homo sapiens; assay: Selectivity for p38alpha MAP kinase (unknown origin) over SGK2 (unknown origin)
Homo sapiens [15] = organism: Homo sapiens; assay: Selectivity for p38alpha MAP kinase (unknown origin) over RET Y791F mutant (unknown origin)
Homo sapiens [16] = organism: Homo sapiens; assay: Selectivity for p38alpha MAP kinase (unknown origin) over ABL1 Y253F mutant (unknown origin)
Homo sapiens [17] = organism: Homo sapiens; assay: Selectivity for p38alpha MAP kinase (unknown origin) over STK39 (unknown origin)
Homo sapiens [18] = organism: Homo sapiens; assay: Selectivity for p38alpha MAP kinase (unknown origin) over WEE1 (unknown origin)
Homo sapiens [19] = organism: Homo sapiens; assay: Selectivity for p38alpha MAP kinase (unknown origin) over ABL1 M351T mutant (unknown origin)
Homo sapiens [20] = organism: Homo sapiens; assay: Selectivity for p38alpha MAP kinase (unknown origin) over DAPK1 (unknown origin)
Homo sapiens [21] = organism: Homo sapiens; assay: Selectivity for p38alpha MAP kinase (unknown origin) over PDK1 (unknown origin)
Homo sapiens [22] = organism: Homo sapiens; assay: Selectivity for p38alpha MAP kinase (unknown origin) over PKC-gamma (unknown origin)
Homo sapiens [23] = organism: Homo sapiens; assay: Selectivity for p38alpha MAP kinase (unknown origin) over BRSK1 (unknown origin)
Homo sapiens [24] = organism: Homo sapiens; assay: Selectivity for p38alpha MAP kinase (unknown origin) over ZAP70 (unknown origin)
Homo sapiens [25] = organism: Homo sapiens; assay: Selectivity for p38alpha MAP kinase (unknown origin) over IKK-epsilon (unknown origin)
Homo sapiens [26] = organism: Homo sapiens; assay: Selectivity for p38alpha MAP kinase (unknown origin) over PDGFR-alpha T674I mutant (unknown origin)
Homo sapiens [27] = organism: Homo sapiens; assay: Selectivity for p38alpha MAP kinase (unknown origin) over NEK11 (unknown origin)
Homo sapiens [28] = organism: Homo sapiens; assay: Selectivity for p38alpha MAP kinase (unknown origin) over TRK-A (unknown origin)
Homo sapiens [29] = organism: Homo sapiens; assay: Selectivity for p38alpha MAP kinase (unknown origin) over PRKX (unknown origin)
Homo sapiens [30] = organism: Homo sapiens; assay: Selectivity for p38alpha MAP kinase (unknown origin) over PHKG2 (unknown origin)
Homo sapiens [31] = organism: Homo sapiens; assay: Selectivity for p38alpha MAP kinase (unknown origin) over GRK5 (unknown origin)
Homo sapiens [32] = organism: Homo sapiens; assay: Selectivity for p38alpha MAP kinase (unknown origin) over COT (unknown origin)
Homo sapiens [33] = organism: Homo sapiens; assay: Selectivity for p38alpha MAP kinase (unknown origin) over RPS6KA4 (unknown origin)
Homo sapiens [34] = organism: Homo sapiens; assay: Selectivity for p38alpha MAP kinase (unknown origin) over NIK (unknown origin)
Homo sapiens [35] = organism: Homo sapiens; assay: Selectivity for p38alpha MAP kinase (unknown origin) over RIPK5 (unknown origin)
Homo sapiens [36] = organism: Homo sapiens; assay: Selectivity for p38alpha MAP kinase (unknown origin) over MAP4K2 (unknown origin)
Homo sapiens [37] = organism: Homo sapiens; assay: Selectivity for p38alpha MAP kinase (unknown origin) over HIPK1 (unknown origin)
Homo sapiens [38] = organism: Homo sapiens; assay: Selectivity for p38alpha MAP kinase (unknown origin) over NEK6 (unknown origin)
Homo sapiens [39] = organism: Homo sapiens; assay: Selectivity for p38alpha MAP kinase (unknown origin) over MAP3K10 (unknown origin)
Homo sapiens [40] = organism: Homo sapiens; assay: Selectivity for p38alpha MAP kinase (unknown origin) over CK1-gamma1 (unknown origin)
Homo sapiens [41] = organism: Homo sapiens; assay: Selectivity for p38alpha MAP kinase (unknown origin) over Aurora-A (unknown origin)
Homo sapiens [42] = organism: Homo sapiens; assay: Selectivity for p38alpha MAP kinase (unknown origin) over CDK5/p35NCK (unknown origin)
Homo sapiens [43] = organism: Homo sapiens; assay: Selectivity for p38alpha MAP kinase (unknown origin) over JNK2 (unknown origin)
Homo sapiens [44] = organism: Homo sapiens; assay: Selectivity for p38alpha MAP kinase (unknown origin) over MARK1 (unknown origin)
Homo sapiens [45] = organism: Homo sapiens; assay: Selectivity for p38alpha MAP kinase (unknown origin) over MAP3K11 (unknown origin)
Homo sapiens [46] = organism: Homo sapiens; assay: Selectivity for p38alpha MAP kinase (unknown origin) over GSG2 (unknown origin)
Homo sapiens [47] = organism: Homo sapiens; assay: Selectivity for p38alpha MAP kinase (unknown origin) over EGFR 752 to 759 deletion mutant (unknown origin)
Homo sapiens [48] = organism: Homo sapiens; assay: Selectivity for p38alpha MAP kinase (unknown origin) over PRKD2 (unknown origin)
Homo sapiens [49] = organism: Homo sapiens; assay: Selectivity for p38alpha MAP kinase (unknown origin) over LTK (unknown origin)
Homo sapiens [50] = organism: Homo sapiens; assay: Selectivity for p38alpha MAP kinase (unknown origin) over PRK2 (unknown origin)
Homo sapiens [51] = organism: Homo sapiens; assay: Selectivity for p38alpha MAP kinase (unknown origin) over CAMKK2 (unknown origin)
Homo sapiens [52] = organism: Homo sapiens; assay: Selectivity for p38alpha MAP kinase (unknown origin) over MATK (unknown origin)
Homo sapiens [53] = organism: Homo sapiens; assay: Selectivity for p38alpha MAP kinase (unknown origin) over EPHA7 (unknown origin)
Homo sapiens [54] = organism: Homo sapiens; assay: Selectivity for p38alpha MAP kinase (unknown origin) over CDK1/CycA (unknown origin)
Homo sapiens [55] = organism: Homo sapiens; assay: Selectivity for p38alpha MAP kinase (unknown origin) over FGFR1 V561M mutant (unknown origin)
Homo sapiens [56] = organism: Homo sapiens; assay: Selectivity for p38alpha MAP kinase (unknown origin) over CHK2 (unknown origin)
Homo sapiens [57] = organism: Homo sapiens; assay: Selectivity for p38alpha MAP kinase (unknown origin) over FGFR4 (unknown origin)
Homo sapiens [58] = organism: Homo sapiens; assay: Selectivity for p38alpha MAP kinase (unknown origin) over PAK6 (unknown origin)
Homo sapiens [59] = organism: Homo sapiens; assay: Selectivity for p38alpha MAP kinase (unknown origin) over MET Y1230D mutant (unknown origin)
Homo sapiens [60] = organism: Homo sapiens; assay: Selectivity for p38alpha MAP kinase (unknown origin) over BMX (unknown origin)
Homo sapiens [61] = organism: Homo sapiens; assay: Selectivity for p38alpha MAP kinase (unknown origin) over FRK (unknown origin)
Homo sapiens [62] = organism: Homo sapiens; assay: Selectivity for p38alpha MAP kinase (unknown origin) over PLK1 (unknown origin)
Homo sapiens [63] = organism: Homo sapiens; assay: Selectivity for p38alpha MAP kinase (unknown origin) over MAP3K9 (unknown origin)
Homo sapiens [64] = organism: Homo sapiens; assay: Selectivity for p38alpha MAP kinase (unknown origin) over ERK2 (unknown origin)

Measured: Selectivity ratio

Cc1cc(F)c(NC(=O)c2ccsc2)cc1Nc1ccc2c(c1)OCc1ccc(OC[C@H](O)CO)cc1C2=O
> 1000: Homo sapiens [1] | Homo sapiens [2] | Homo sapiens [3] | Homo sapiens [4] | Homo sapiens [5] | Homo sapiens [6] | Homo sapiens [7] | Homo sapiens [8] | Homo sapiens [9] | Homo sapiens [10] | Homo sapiens [11] | Homo sapiens [12] | Homo sapiens [13] | Homo sapiens [14] | Homo sapiens [15] | Homo sapiens [16] | Homo sapiens [17] | Homo sapiens [18] | Homo sapiens [19] | Homo sapiens [20] | Homo sapiens [21] | Homo sapiens [22] | Homo sapiens [23] | Homo sapiens [24] | Homo sapiens [25] | Homo sapiens [26] | Homo sapiens [27] | Homo sapiens [28] | Homo sapiens [29] | Homo sapiens [30] | Homo sapiens [31] | Homo sapiens [32] | Homo sapiens [33] | Homo sapiens [34] | Homo sapiens [35] | Homo sapiens [36] | Homo sapiens [37] | Homo sapiens [38] | Homo sapiens [39] | Homo sapiens [40] | Homo sapiens [41] | Homo sapiens [42] | Homo sapiens [43] | Homo sapiens [44] | Homo sapiens [45] | Homo sapiens [46] | Homo sapiens [47] | Homo sapiens [48] | Homo sapiens [49] | Homo sapiens [50] | Homo sapiens [51] | Homo sapiens [52] | Homo sapiens [53] | Homo sapiens [54] | Homo sapiens [55] | Homo sapiens [56] | Homo sapiens [57] | Homo sapiens [58] | Homo sapiens [59] | Homo sapiens [60] | Homo sapiens [61] | Homo sapiens [62] | Homo sapiens [63] | Homo sapiens [64]
